The experiment deals with CAF1 mice, leiomyosarcoma No.2 ip, survival T/C%. In words: NCI In Vivo Anticancer Drug Screen. Data for tumor model Leiomyosarcoma (No. 2) (intraperitoneal) in CAF1 mice. To be noted: T/C endpoint: mean survival time, higher T/C = longer survival. The procedure: The antitumor activity of compounds was measured in mice bearing transplantable tumors. Survival or tumor size were measured and the results are expressed as the measurement made in the treated group (T) divided by the measurement made in the vehicle treated control group (C). The tumor model used in this assay is Leiomyosarcoma (No. 2) (intraperitoneal) in CAF1 mice

The mark [1] stands for this setting: dose: 50.0 mg/kg/injection, schedule: Q01DX010 (ip), vehicle: saline.
Where [2] appears, read: dose: 100.0 mg/kg/injection, schedule: Q01DX010 (ip), vehicle: saline.
The mark [3] stands for this setting: dose: 200.0 mg/kg/injection, schedule: Q01DX010 (ip), vehicle: saline.
The mark [4] stands for this setting: dose: 32.0 mg/kg/injection, schedule: Q01DX010 (ip), vehicle: saline.
[5] abbreviates: dose: 16.0 mg/kg/injection, schedule: Q01DX010 (ip), vehicle: saline.
Where [6] appears, read: dose: 2.5 mg/kg/injection, schedule: Q01DX010 (ip), vehicle: saline.
The mark [7] stands for this setting: dose: 10.0 mg/kg/injection, schedule: Q01DX010 (ip), vehicle: saline.
[8] abbreviates: dose: 20.0 mg/kg/injection, schedule: Q01DX010 (ip), vehicle: saline.
[9] abbreviates: dose: 80.0 mg/kg/injection, schedule: Q01DX010 (ip), vehicle: saline.
Setting [10] is: dose: 5.0 mg/kg/injection, schedule: Q01DX010 (ip), vehicle: saline.
Setting [11] is: dose: 0.63 mg/kg/injection, schedule: Q01DX010 (ip), vehicle: saline.
Where [12] appears, read: dose: 6.25 mg/kg/injection, schedule: Q01DX010 (ip), vehicle: saline.
The mark [13] stands for this setting: dose: 25.0 mg/kg/injection, schedule: Q01DX010 (ip), vehicle: saline.
The mark [14] stands for this setting: dose: 400.0 mg/kg/injection, schedule: Q01DX010 (ip), vehicle: saline.
Setting [15] is: dose: 40.0 mg/kg/injection, schedule: Q01DX010 (ip), vehicle: saline.
Setting [16] is: dose: 3.13 mg/kg/injection, schedule: Q01DX010 (ip), vehicle: saline.
The mark [17] stands for this setting: dose: 250.0 mg/kg/injection, schedule: Q01DX010 (ip), vehicle: saline.
Setting [18] is: dose: 120.0 mg/kg/injection, schedule: Q01DX010 (ip), vehicle: saline.
[19] abbreviates: dose: 4.0 mg/kg/injection, schedule: Q01DX010 (ip), vehicle: saline.
[20] abbreviates: dose: 8.0 mg/kg/injection, schedule: Q01DX010 (ip), vehicle: saline.
Setting [21] is: dose: 62.5 mg/kg/injection, schedule: Q01DX010 (ip), vehicle: saline.
[22] abbreviates: dose: 500.0 mg/kg/injection, schedule: Q01DX010 (ip), vehicle: saline.
Where [23] appears, read: dose: 60.0 mg/kg/injection, schedule: Q01DX010 (ip), vehicle: saline.
Setting [24] is: dose: 200.0 mg/kg/injection, schedule: Q01DX010 (ip), vehicle: alkali diluted with saline.

The list shows only some results of the screen, not a fair sample: it is rich in T/C values a quarter to a half above the control, in often repeated tests (any T/C) and in doses without a T/C. Further doses and runs are listed elsewhere. T/C: endpoint of the treated group in % of that of the vehicle group. Some entries give survivors of the animals treated and no T/C: the source files T/C as zero there, which appears to mark a toxic dose or a test without result, not a measured value. Some doses without a T/C left all or most animals alive at the check, yet need not have been tolerated: survival well below the control is almost never listed, so the zero probably covers shortened survival too. Survivors were counted at the toxicity check, usually on the fifth day, unless a day is given; later deaths do not show. Schedules are NCI's codes, read here as Q, the interval in days (D) or hours (H), X, the number of doses. Some entries hold several experiments; the results are listed from low to high. For survival time, this PubChem deposit counts one and a half times the control or more as active, and values a quarter to a half above the control carry no call in these data; other NCI protocols may use other cut-offs. Signs of the kind (2×) say how often a value occurs here. Some T/C values carry the count of animals alive at the toxicity check (mostly the fifth day); without a count, all were alive then.

On to `CCN(CC)CCNc1ccc(C)c2sc3ccccc3c(=O)c12`, for which the T/C under setting [1] was 129 % of control. Besides, the survivor count was 6 of 6 under setting [2] and 3 of 6 under setting [3].
As to `CCCCOP(=S)(N1CC1)N1CC1`, the survivor count under setting [4] is 6 of 6.
As to `CC(CCC(C)OS(C)(=O)=O)OS(C)(=O)=O` (stereo not given), under setting [5], the T/C is 140 % of control. Moreover, the survivor count under setting [4] is on record as 6 of 6.
For `N#[N+]c1cnc([O-])[nH]c1=O`, under setting [6], the T/C was 134 % of control. Under setting [7], the survivor count is reported as 0 of 6.
With `Nc1nc(SCc2ccccc2)c2[nH]cnc2n1`, under setting [5], the T/C was 125 % of control.
For `S=P(N1CCOCC1)(N1CC1)N1CC1`, the survivor count under setting [8] is on record as 6 of 6.
Consider `CCOC(=O)c1[nH]c2ccccc2c1CN(CCCl)CCCl`, for which, under setting [9], the survivor count was 0 of 6.
`OCC1OC(n2cnc3c(=S)nc[nH]c32)C(O)C1O` (stereo not given): the T/C under setting [9] was 137 % of control. In addition, for the setting “dose: 160.0 mg/kg/injection, schedule: Q01DX010 (ip), vehicle: saline”, the survivor count is listed as 6 of 6.
For `Nc1nc(=S)c2[nH]cnc2[nH]1`, the survivor count under setting [10] is on record as 6 of 6 and the survivor count under setting [7] was 6 of 6.
In the case of `Oc1cc(CN(CCCl)CCCl)c(O)cc1CN(CCCl)CCCl`, the T/C by setting is: under setting [11], 125 % of control; under setting [6], 129 % of control [5 of 6 alive]. The survivor count by setting is: under setting [11], 4 of 6; under setting [6], 4 of 6; under setting [10], 5 of 6.
For `CS(=O)(=O)OCCCCOS(C)(=O)=O`, the survivor count was 6 of 6 under setting [12], 6 of 6 under setting [13] and 6 of 6 under setting [1].
On to `CS(=O)(=O)OCCCl`, for which the T/C is 125 % of control (dose: 37.5 mg/kg/injection, schedule: Q01DX010 (ip), vehicle: saline) and 126 % of control (dose: 75.0 mg/kg/injection, schedule: Q01DX010 (ip), vehicle: saline).
Take `O[C@H](CN1CC1)[C@@H](O)CN1CC1`: the T/C (dose: 1000.0 micrograms/kg/injection, schedule: Q01DX010 (ip), vehicle: saline) was 141 % of control.
For the molecule `O=[n+]1c2c(n([O-])c3ccccc31)-c1cccc3cccc-2c13`, the survivor count under setting [13] is 6 of 6, the survivor count under setting [1] is 6 of 6, the survivor count under setting [2] is 6 of 6 and the survivor count under setting [3] is given as 4 of 6.
For the molecule `C#CCN(C)Cc1ccccc1`, under setting [14], the survivor count was 2 of 6.
With `O=c1[nH]cc(F)c(=O)[nH]1`, the T/C under setting [10] is 136 % of control. The survivor count under setting [15] is 6 of 6.
Regarding `Cc1cc(N(CCCl)CCCl)ccc1N=Nc1ccccc1C(=O)O`, the T/C is 145 % of control under setting [10] and 137 % of control under setting [8]. Moreover, the survivor count under setting [9] was 6 of 6.
For `N=[N+]=CC(=O)OCC(N)C(=O)O` (stereo not given), the T/C is, setting by setting: under setting [16], 141 % of control; under setting [12], 142 % of control. Also, the survivor count under setting [13] was 5 of 6.
In the case of `O=C(Nc1ccc(C2=NCCN2)cc1)c1cccc(C(=O)Nc2ccc(C3=NCCN3)cc2)c1`, the T/C is, setting by setting: under setting [4], 130 and 135 % of control; (dose: 64.0 mg/kg/injection, schedule: Q01DX010 (ip), vehicle: saline) 126 and 132 % of control.
Consider `O=c1[nH]c(=O)n(C2CC(O)C(CO)O2)cc1F` (stereo not given), for which the T/C under setting [7] was 141 % of control; the T/C under setting [15] was 127 and 136 % of control. Besides, under setting [9], the survivor count was 6 of 6.
Regarding `CCCSc1ncnc2nc[nH]c12`, the survivor count under setting [17] is on record as 6 of 6.
As for `C[C@]12C=CC(=O)C=C1CC[C@@H]1[C@@H]2[C@@H](O)C[C@@]2(C)[C@H]1CC[C@]2(O)C(=O)CO`, for the setting “dose: 100.0 mg/kg/injection, schedule: Q01DX010 (sc), vehicle: steroid suspending solution”, the survivor count was 6 of 6.
Regarding `CN(C)c1ccc(Nc2c3ccccc3nc3ccccc23)cc1`, the T/C was 131 % of control (dose: 36.0 mg/kg/injection, schedule: Q01DX010 (ip), vehicle: saline); 127 % of control (dose: 54.0 mg/kg/injection, schedule: Q01DX010 (ip), vehicle: saline); 140 % of control under setting [9]. Also, the survivor count under setting [18] is given as 5 of 6.
As to `CN(C)c1ccc(/C=C/c2ccnc3ccccc23)cc1`, the survivor count runs as follows: under setting [7], 6 of 6; under setting [8], 6 of 6; under setting [15], 6 of 6.
Regarding `CCCNc1ncnc2[nH]ncc12`, the survivor count runs as follows: under setting [16], 6 of 6; under setting [12], 6 of 6; under setting [13], 6 of 6.
`CS(=O)(=O)OCCN(CCOS(C)(=O)=O)c1ccc(N=O)cc1`: the survivor count runs as follows: (dose: 2.0 mg/kg/injection, schedule: Q01DX010 (ip), vehicle: saline) 0 of 6 and 6 of 6; under setting [19], 6 of 6; under setting [20], 5 of 6; under setting [5], 0 of 6.
On to `OCC1OC(n2cnc3c(Cl)ncnc32)C(O)C1O` (stereo not given), for which the survivor count is, setting by setting: under setting [21], 6 of 6; (dose: 125.0 mg/kg/injection, schedule: Q01DX010 (ip), vehicle: saline) 6 of 6; under setting [17], 6 of 6; under setting [22], 5 of 6 and 6 of 6.
`Nc1nc(N)c2nc(CNc3ccc(C(=O)NC(CCC(=O)O)C(=O)O)cc3)cnc2n1` (stereo not given): the T/C (dose: 0.05 mg/kg/injection, schedule: Q01DX010 (ip), vehicle: other) is 125 % of control and the T/C (dose: 0.2 mg/kg/injection, schedule: Q01DX010 (ip), vehicle: other) was 133 % of control.
On to `O=c1c(O)cccc2cc(O)c(O)c(O)c12`, for which the survivor count reads like this: under setting [2], 6 of 6; under setting [3], 6 of 6.
Take `O=C(O)CCCc1ccc(N(CCCl)CCCl)cc1`: the T/C under setting [16] was 125 % of control (2×). Further, the survivor count under setting [13] was 0 of 6 and 2 of 6.
For the molecule `C[C@H]1C(=O)O[C@@H]2CCN3CC=C(COC(=O)[C@](C)(O)[C@@]1(C)O)[C@H]23`, under setting [1], the T/C was 125 % of control.
For `NC(Cc1ccc(N(CCCl)CCCl)cc1)C(=O)O` (stereo not given), under setting [8], the survivor count is given as 6 of 6.
Turning to `N#CCSc1ncnc2nc[nH]c12`, the T/C reads like this: under setting [23], 127 % of control; under setting [18], 137 % of control.
`CS(=O)(=O)OCC(O)C(O)C(O)C(O)COS(C)(=O)=O` (stereo not given): the T/C was 127 % of control under setting [3] and 140 % of control under setting [14].
Turning to `C=CC(CN1CC1)OC(C)=O` (stereo not given), the T/C is, setting by setting: under setting [19], 136 % of control; under setting [5], 140 % of control.
Regarding `Clc1ncnc2nc[nH]c12`, the T/C under setting [23] was 133 % of control.
`C[C@@H]1C[C@@H]([C@H](O)CC2CC(=O)NC(=O)C2)C(=O)[C@@H](C)C1`: the T/C under setting [8] was 138 % of control.
`O=c1cnn(C2OC(CO)C(O)C2O)c(=O)[nH]1` (stereo not given): the survivor count (dose: 1600.0 mg/kg/injection, schedule: Q01DX010 (ip), vehicle: saline) is recorded as 6 of 6.
On to `COS(C)(=O)=O`, for which the survivor count under setting [2] is given as 6 of 6.
`Nc1nc(=S)c2ncn(C3OC(CO)C(O)C3O)c2[nH]1` (stereo not given): the survivor count is recorded as 6 of 6 under setting [19], 6 of 6 under setting [20] and 6 of 6 under setting [5].
`O=c1cn[nH]c(=O)[nH]1`: the survivor count by setting is: under setting [21], 6 of 6; under setting [22], 5 of 6.
In the case of `Nc1nc2n[nH]nc2c(=O)[nH]1`, the T/C (dose: 100.0 mg/kg/injection, schedule: Q01DX010 (ip), vehicle: alkali diluted with saline) was 138 % of control. In addition, under setting [24], the T/C was 133 % of control and the survivor count is listed as 0 of 6.
